Results are given in words; binding and its absence hold for the method and conditions named.
Columns and labels:
[1] = biological target: human tyrosinase, residues 19-469 (TYR469) (human) (UniProt P14679); test: SEC; analytical gel filtration, Superdex 200 10/300; 0.1 mL of ~10 mg/mL protein loaded; 25 mM Tris-HCl, pH 7.8, 200 mM NaCl; 0.5 mL/min; both purified
[2] = biological target: human tyrosinase, residues 19-456 (TYR456) (human) (UniProt P14679); test: as above

Row | Binder | binding [1] | binding [2]
1 | human tyrosinase, residues 19-469 (TYR469) (domain or fragment, UniProt P14679 19-469, N-linked glycosylation (seven putative sites)) HFPRACVSSKNLMEKECCPPWSGDRSPCGQLSGRGSCQNILLSNAPLGPQFPFTGVDDRESWPSVFYNRTCQCSGNFMGFNCGNCKFGFWGPNCTERRLLVRRNIFDLSAPEKDKFFAYLTLAKHTISSDYVIPIGTYGQMKNGSTPMFNDINIYDLFVWMHYYVSMDALLGGSEIWRDIDFAHEAPAFLPWHRLFLLRWEQEIQKLTGDENFTIPYWDWRDAEKCDICTDEYMGGQHPTNPNLLSPASFFSSWQIVCSRLEEYNSHQSLCNGTPEGPLRRNPGNHDKSRTPRLPSSADVEFCLSLTQYESGSMDKAANFSFRNTLEGFASPLTGIADASQSSMHNALHIYMNGTMSQVQGSANDPIFLLHHAFVDSIFEQWLRRHRPLQEVYPEANAPIGHNRESYMVPFIPLYRNGDFFISSKDLGYDYSYLQDSDPDSFQDYIKSYLE | no binding (tested: ~10 mg/mL loaded) | –
2 | human tyrosinase, residues 19-456 (TYR456) (domain or fragment, UniProt P14679 19-456, N-linked glycosylation (seven putative sites)) HFPRACVSSKNLMEKECCPPWSGDRSPCGQLSGRGSCQNILLSNAPLGPQFPFTGVDDRESWPSVFYNRTCQCSGNFMGFNCGNCKFGFWGPNCTERRLLVRRNIFDLSAPEKDKFFAYLTLAKHTISSDYVIPIGTYGQMKNGSTPMFNDINIYDLFVWMHYYVSMDALLGGSEIWRDIDFAHEAPAFLPWHRLFLLRWEQEIQKLTGDENFTIPYWDWRDAEKCDICTDEYMGGQHPTNPNLLSPASFFSSWQIVCSRLEEYNSHQSLCNGTPEGPLRRNPGNHDKSRTPRLPSSADVEFCLSLTQYESGSMDKAANFSFRNTLEGFASPLTGIADASQSSMHNALHIYMNGTMSQVQGSANDPIFLLHHAFVDSIFEQWLRRHRPLQEVYPEANAPIGHNRESYMVPFIPLYRNGDFFISSKDLGYDYSYLQDSD | – | no binding (tested: ~10 mg/mL loaded)

From PMC4994950
